According to paper PMC7202507:
Results are given in words; binding and its absence hold for the method and conditions named. In cells and extracts the contact can be indirect. Some entries that bind do so weakly or less than the wild type.

By UniProt entry, the sequences of proteins in these tests, tags left out.
UniProt Q00534: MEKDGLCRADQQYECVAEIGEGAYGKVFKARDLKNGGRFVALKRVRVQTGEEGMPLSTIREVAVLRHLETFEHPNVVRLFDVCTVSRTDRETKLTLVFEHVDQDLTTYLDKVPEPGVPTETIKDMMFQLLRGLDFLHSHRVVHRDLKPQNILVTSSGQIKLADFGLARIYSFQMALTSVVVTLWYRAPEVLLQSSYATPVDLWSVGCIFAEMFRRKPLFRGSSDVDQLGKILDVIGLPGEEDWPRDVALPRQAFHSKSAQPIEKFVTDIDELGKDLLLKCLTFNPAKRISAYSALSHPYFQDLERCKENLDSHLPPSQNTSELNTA

Target: T1, UDP-GlcNAc pyrophosphorylase-1 like 1 (UAP1L1) (human) (UniProt Q3KQV9)
T1 sequence: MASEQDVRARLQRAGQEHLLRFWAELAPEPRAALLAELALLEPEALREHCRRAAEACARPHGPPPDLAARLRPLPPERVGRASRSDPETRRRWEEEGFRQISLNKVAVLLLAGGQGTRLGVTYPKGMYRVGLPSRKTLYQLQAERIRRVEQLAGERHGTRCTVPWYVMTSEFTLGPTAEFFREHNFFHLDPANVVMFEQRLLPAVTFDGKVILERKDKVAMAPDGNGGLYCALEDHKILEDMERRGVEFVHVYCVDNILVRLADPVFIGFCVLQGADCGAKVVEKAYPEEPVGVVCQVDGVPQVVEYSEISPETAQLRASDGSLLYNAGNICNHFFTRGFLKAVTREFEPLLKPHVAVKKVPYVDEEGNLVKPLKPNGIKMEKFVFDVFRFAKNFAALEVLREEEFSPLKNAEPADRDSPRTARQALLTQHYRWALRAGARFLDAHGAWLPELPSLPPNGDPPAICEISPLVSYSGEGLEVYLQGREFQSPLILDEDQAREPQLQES
Test: co-IP; cell lysate in RIPA buffer, 1.0-1.2 mg proteins, normal rabbit IgG as control, protein A/G-beads, immunoblotting; precipitating antibody and cell line not told

binding: binds
Substance: CDK6 (from UniProt Q00534 1-326)
